Measured values taken from patent US20190062752.

Sequences of proteins named here, by UniProt entry; tags and fusion partners are left off.
UniProt Q00899, whole entry: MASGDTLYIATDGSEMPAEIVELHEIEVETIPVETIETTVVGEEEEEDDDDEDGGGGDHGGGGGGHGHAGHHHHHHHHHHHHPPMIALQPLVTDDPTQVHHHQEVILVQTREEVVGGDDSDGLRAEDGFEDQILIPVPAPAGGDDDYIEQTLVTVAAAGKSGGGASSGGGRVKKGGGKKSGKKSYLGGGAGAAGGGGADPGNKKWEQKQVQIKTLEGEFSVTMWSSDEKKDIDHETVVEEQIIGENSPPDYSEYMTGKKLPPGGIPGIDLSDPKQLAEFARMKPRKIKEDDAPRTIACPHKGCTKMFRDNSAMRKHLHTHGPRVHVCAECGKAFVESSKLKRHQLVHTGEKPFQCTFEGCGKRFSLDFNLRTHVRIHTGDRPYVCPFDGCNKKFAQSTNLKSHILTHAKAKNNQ

Columns and labels:
Test in all cases: EMSA
[1] = molecular target: YY1 (endogenous, ESC nuclear extract) (Mus musculus) (UniProt Q00899); conditions: nuclear extract; YY1 antibody supershift; protein in an extract; label: 32P
CTCF (Mus musculus) = molecular target: T1, CTCF (Mus musculus) (UniProt Q61164); conditions: ESC nuclear extract, antibody supershift; protein in an extract; label: 32P
T1 sequence (looked up, limits assumed): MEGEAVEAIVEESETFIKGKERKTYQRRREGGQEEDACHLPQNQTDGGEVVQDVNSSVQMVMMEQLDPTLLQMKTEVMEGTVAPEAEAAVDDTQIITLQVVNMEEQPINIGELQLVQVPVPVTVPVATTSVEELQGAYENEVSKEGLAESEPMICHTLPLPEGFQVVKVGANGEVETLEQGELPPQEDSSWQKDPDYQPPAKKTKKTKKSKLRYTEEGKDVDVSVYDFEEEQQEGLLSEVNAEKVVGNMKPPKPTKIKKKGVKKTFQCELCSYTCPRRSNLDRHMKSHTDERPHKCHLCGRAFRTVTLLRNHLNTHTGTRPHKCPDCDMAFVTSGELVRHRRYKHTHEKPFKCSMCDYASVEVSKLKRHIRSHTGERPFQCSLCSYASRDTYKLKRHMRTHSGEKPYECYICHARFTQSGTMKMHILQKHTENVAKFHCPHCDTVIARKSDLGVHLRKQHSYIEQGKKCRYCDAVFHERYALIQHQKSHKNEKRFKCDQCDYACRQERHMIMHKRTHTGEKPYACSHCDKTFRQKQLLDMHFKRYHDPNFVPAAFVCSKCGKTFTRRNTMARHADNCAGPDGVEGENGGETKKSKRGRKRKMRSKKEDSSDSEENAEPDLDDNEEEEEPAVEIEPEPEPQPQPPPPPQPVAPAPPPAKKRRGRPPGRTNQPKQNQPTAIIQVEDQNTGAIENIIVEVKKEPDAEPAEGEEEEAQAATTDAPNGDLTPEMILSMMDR

[2] = molecular target: T2, Ronin (Thap11) (Mus musculus) (UniProt Q9JJD0); conditions: ESC nuclear extract, antibody supershift; protein in an extract; label: 32P
T2 sequence (looked up, limits assumed): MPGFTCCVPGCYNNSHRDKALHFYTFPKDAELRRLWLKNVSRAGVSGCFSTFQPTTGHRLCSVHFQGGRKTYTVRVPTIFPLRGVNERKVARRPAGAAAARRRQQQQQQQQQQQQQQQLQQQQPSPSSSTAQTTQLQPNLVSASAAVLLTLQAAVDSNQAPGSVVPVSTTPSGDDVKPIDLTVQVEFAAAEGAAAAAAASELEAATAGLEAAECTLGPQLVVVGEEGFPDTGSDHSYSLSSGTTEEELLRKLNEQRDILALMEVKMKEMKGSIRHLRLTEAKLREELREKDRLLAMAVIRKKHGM

Sequence | binding result [1] | binding result (CTCF (Mus musculus)) | binding result [2]
CTCTTCTCTCTTAAAATGGCTGCCTGTCTG (double strand) [Arid1a promoter DNA with YY1 motif] | binds |  | 
CUCUUCUCUCUUAAAAUGGCUGCCUGUCUG [Arid1a promoter RNA A] |  | binds | binds
TCGCTCCCCGGCCATCTTGGCGGCTGGTGT (double strand) [Rpl30 promoter DNA with YY1 motif] | binds |  | 

Where cells or extracts were used, other partners may take part. For some of these results: Where a protein sequence is shown, tags need not be part of it.
